# Experimental data from paper PMC5897841, “Development of a multipurpose scaffold for the display of peptide loops” (Protein Engineering, Design and Selection, 2017).
# B1: Aurora AD274N: Kinase dead human Aurora AD274N mutant (residues 122-403) (protein)
# chain: ESKKRQWALEDFEIGRPLGKGKFGNVYLAREKQSKFILALKVLFKAQLEKAGVEHQLRREVEIQSHLRHPNILRLYGYFHDATRVYLILEYAPLGTVYRELQKLSKFDEQRTATYITELANALSYCHSKRVIHRDIKPENLLLGSAGELKIANFGWSVHAPSSRRTTLCGTLDYLPPEMIEGRMHDEKVDLWSLGVLCYEFLVGKPPFEANTYQETYKRISRVEFTFPDFVTEGARDLISRLLKHNPSQRPMLREVLEHPWITANSSKPSNCQNKESASKQS
# modifications: left off: His6, C-terminal, kept
# Tested on: Aurora AD274N kinase
# Experiment: Sedimentation velocity AUC, Aurora A D274N / RAD-TPX2
# Type: binding, human
# Settings: 20°C, 20 mM HEPES pH 7.5, 500 mM NaCl
molecule,measurement,setting,value
B1,Sedimentation coefficient (s-value),"SV AUC, 50 000 rpm, 280 nm, Aurora AD274N 10 μM, RAD-TPX2 25 μM, complex 10 μM each",2.6 S
same,Molar mass from SV AUC,boundary spreading,34.5 kDa
